Experimental data: patent US20230220122A1, “METHOD FOR PRODUCTION OF FUNCTIONAL POLYSACCHARIDE AND COSMETIC COMPOSITION” (CARBOEXPERT INC., priority 2019, published 2023)

System: BALB/3T3 clone A31
Assay: in vitro 3T3 NRU phototoxicity test
Type: cell-based
Experimental: This test was to evaluate phototoxicity after treating cells of BALB/3T3 clone A31 with a sample in the in vitro 3T3 NRU phototoxicity test. The phototoxicity was identified by evaluating cell viability, IC50 according to the presence or absence of light irradiation, and phototoxicity according to concentration response [photo irritation factor (PIF), and mean photo effect (MPE)].
In addition, as a negative control group, PBS diluted in DMEM was used.
Each of test substances was dissolved in PBS and diluted in steps at […] 2.
UVA (315-400 nm) causing a phototoxic reaction by activating chemical materials without toxicity to cells was irradiated, and the amount of light was 5 J/cm^2.
100 μl of cell suspension (1×10^4 cells/well) and medium were dispensed into two 96 well plates per group, and the cells were cultured for 24 hours in a cell incubator at 37° C. and 5% CO^2.
After removing the medium, the cells were washed once with 150 μl of warm PBS.
The UV irradiation plate was irradiated with UVA at a light intensity of 5 J/cm^2, and while UV was irradiated, the non-irradiated plate was shielded with aluminum foil and left at room temperature. After removing the solution, washing was performed twice with 150 μl of warm PBS. 100 μl of the medium was dispensed and the cells were cultured for 20±2 hours in a cell incubator at 37° C. and 5% CO2.
The growth and morphology of the cells were observed using a microscope, the medium was removed therefrom, and then the cells were washed once with 150 μl of warm PBS. After dispensing 100 μl of neutral red medium, the cells were incubated for 3 hours in a cell incubator at 37° C. and 5% CO2. After removing the neutral red medium, the cells were washed once with 150 μl of warm PBS. 150 μl of neutral red extract was dispensed, and the plate was stirred for 10 minutes while light was shielded.
Absorbance was measured at a wavelength of 540 nm by using a multi-channel microplate reader.
Phototoxicity was judged by calculating PIF and MPE values using IC50 according to the presence or absence of light irradiation.
PIF and MPE values were calculated from the measured absorbance values by using the software (Phototox 2.6, ZEBET at the BFR, Berlin Germany), and no statistical method was performed.

For `CN(C)CCCN1c2ccccc2Sc2ccc(Cl)cc21` [CPZ], the “OD540 Mean” value (UV (+), 0.04 μg/mL) was 0.528, the “OD540 Mean” value (UV (+), 0.08 μg/mL) was 0.456 and the “OD540 Mean” value (UV (+), 0.16 μg/mL) was 0.508. The “OD540 Mean” value (UV (+), 0.31 μg/mL) was 0.549, the “OD540 Mean” value (UV (+), 0.63 μg/mL) was 0.530 and the “OD540 Mean” value (UV (+), 2.5 μg/mL) was 0.059. The “OD540 Mean” value (UV (+), 5 μg/mL) was 0.063, the “OD540 Mean” value (UV (−), 1.56 μg/mL) was 0.589 and the “OD540 Mean” value (UV (−), 3.13 μg/mL) was 0.554. For the same compound, the “OD540 Mean” value (UV (−), 6.25 μg/mL) was 0.617, the “OD540 Mean” value (UV (−), 25 μg/mL) was 0.352 and the “OD540 Mean” value (UV (−), 50 μg/mL) was 0.051. The “OD540 Mean” value (UV (−), 100 μg/mL) was 0.050 and the “OD540 Mean” value (UV (−), 200 μg/mL) was 0.050.
